Residue numbers refer to the chain shown, from its start. Names and notes keep the numbering of the source. No constants are given. Whether binding was seen depends on the method and setting. Some results given as binding are weak or reduced against the parent protein; the word gives no strength.

The experiment deals with Cyno SLC34A2 (cynomolgus monkey). The experiment can be described thus: cell binding on recombinant SLC34A2 (Table 1).

B1: cHv83-3a23.G1(L328C)k (antibody, V domains shown)
VH: EVQLVESGGGLVQPGGSLRLSCAASGFTFSSYVMHWVRQAPGKGLEYVSGVSSSGDSTFYVDSVKGRFTISRDNSKNTLYLQMGSLRAEDMAVYYCARGGITGAPLVFDIWGQGTMVTVSS
VL: DIQMTQSPSSLSASVGDRVTITCRASQSISRFLNWYQQKPGKAPKVLIYVTSSLQSGVPSRFSGSGSGTDFTLTISSLQPEDFATYYCQQSYNTPITFGQGTRLEIKR
notes: the name says L328C in the IgG1 constant region; also called [Ag]AB-2; unconjugated antibody of OT1 / OT#1
As for B1, the binding entry is recorded as “binds”.

B2: cHv83-1b15.G1(L328C)k (antibody, V domains shown)
VH: EVQLVESGGGWVQPGGSLRLSCAASGFTFSSHIMYWVRQAPGKGLEYVSGISSNGLSSYYVDSVKGRFTISRDNSKNLLYVHMGSLKPEDMAMYYCARGGRDRVPAVFDYWGQGTLVTVSS
VL: B1 VL with V15I, S30G, R31T, T51A, S63I, N93S, T94V
notes: the name says L328C in the IgG1 constant region; also called [Ag]AB-3; cHv83-1b15.G1k(L328C)k
On to B2, for which the binding entry is reported as “binds”.

Values taken from patent publication US20230073692A1 (CYTOMX THERAPEUTICS, published 2023).
